# Source: the supplement of paper PMC8728848
# The list shows a part of the results.
# B1: SUN4P (Saccharomyces cerevisiae), P53616 (protein)
# chain: MGSSHHHHHHSSGLVPRGSHNGSIYGDLADFSGPYEKFEDGTIPCGQFPSGQGVIPISWLDEGGWSGVENTDTSTGGSCKEGSYCSYACQPGMSKTQWPSDQPSDGRSIGGLLCKDGYLYRSNTDTDYLCEWGVDAAYVVSELSNDVAICLTDYPGTENMVIPTYVQAGDSLPLTVVDQDTYYTWQGLKTSAQYYVNNAGISVEDACVWGSSSSGVGNWAPLNFGAGSSDGVAYLSLIPNPNNGNALNFNVKIVAADDSSTVNGECIYENGSFSGGSDGCTVSVTAGKAKFVLYN
# Assays:
# Test in all cases: glycan array binding signal (z-score within array); higher = stronger binding
# Conditions in all cases: glycan notation: IUPAC condensed, linker removed; mutation: R276L
# [1] = target: Gal(b1-3)[Fuc(a1-4)]GlcNAc(b1-3)Gal(b1-4)[Fuc(a1-3)]GlcNAc
# In short: (§1)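 The binding signal is a Z-score computed within each array and averaged over linkers. Arrays of the same protein sequence at different concentrations or buffers were also averaged together. Data originate from 3228 arrays in the Consortium for Functional Glycomics database, kept only where the protein sequence was available.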
# [2] = target: Gal(b1-3)[Fuc(a1-4)]GlcNAc(b1-6)GalNAc
# In short: as §1
# [3] = target: Gal(b1-3)[GlcNAc(b1-6)]GalNAc
# In short: as §1
# [4] = target: Gal(b1-3)[Neu5Ac(a2-6)]GalNAc
# In short: as §1
# [5] = target: Gal(b1-3)[Neu5Ac(a2-6)]GlcNAc(b1-4)Gal(b1-4)Glc
# In short: as §1
# [6] = target: Gal(b1-3)[Neu5Ac(b2-6)]GalNAc
# In short: as §1
# Gal(b1-4)Gal = target: Gal(b1-4)Gal
# In short: as §1
# [7] = target: Gal(b1-4)GalNAc(a1-3)[Fuc(a1-2)]Gal(b1-4)GlcNAc
# In short: as §1
# [8] = target: Gal(b1-4)GalNAc(b1-3)[Fuc(a1-2)]Gal(b1-4)GlcNAc
# In short: as §1
# Gal(b1-4)Glc = target: Gal(b1-4)Glc
# In short: as §1
# Gal(b1-4)Glc6S = target: Gal(b1-4)Glc6S
# In short: as §1
# Gal(b1-4)GlcNAc = target: Gal(b1-4)GlcNAc
# In short: as §1
# [9] = target: Gal(b1-4)GlcNAc(a1-6)Gal(b1-4)GlcNAc
# In short: as §1
# Gal(b1-4)GlcNAc(b1-2)Man = target: Gal(b1-4)GlcNAc(b1-2)Man
# In short: as §1
# [10] = target: Gal(b1-4)GlcNAc(b1-2)Man(a1-3)Man(b1-4)GlcNAc(b1-4)GlcNAc
# In short: as §1
# [11] = target: Gal(b1-4)GlcNAc(b1-2)Man(a1-3)[Gal(b1-4)GlcNAc(b1-2)Man(a1-6)]Man(b1-4)GlcNAc(b1-4)GlcNAc
# In short: as §1
# [12] = target: Gal(b1-4)GlcNAc(b1-2)Man(a1-3)[Gal(b1-4)GlcNAc(b1-2)Man(a1-6)]Man(b1-4)GlcNAc(b1-4)[Fuc(a1-6)]GlcNAc
# In short: as §1
# [13] = target: Gal(b1-4)GlcNAc(b1-2)Man(a1-3)[Gal(b1-4)GlcNAc(b1-2)Man(a1-6)][Gal(b1-4)GlcNAc(b1-4)]Man(b1-4)GlcNAc(b1-4)[Fuc(a1-6)]GlcNAc
# In short: as §1
# [14] = target: Gal(b1-4)GlcNAc(b1-2)Man(a1-3)[Gal(b1-4)GlcNAc(b1-2)Man(a1-6)][GlcNAc(b1-4)]Man(b1-4)GlcNAc(b1-4)[Fuc(a1-6)]GlcNAc
# In short: as §1
# [15] = target: Gal(b1-4)GlcNAc(b1-2)Man(a1-3)[GlcNAc(b1-2)Man(a1-6)]Man(b1-4)GlcNAc(b1-4)GlcNAc
# In short: as §1
# [16] = target: Gal(b1-4)GlcNAc(b1-2)Man(a1-3)[GlcNAc(b1-4)][Gal(b1-4)GlcNAc(b1-2)Man(a1-6)]Man(b1-4)GlcNAc(b1-4)GlcNAc
# In short: as §1
# [17] = target: Gal(b1-4)GlcNAc(b1-2)Man(a1-3)[Man(a1-6)]Man(b1-4)GlcNAc(b1-4)GlcNAc
# In short: as §1
# [18] = target: Gal(b1-4)GlcNAc(b1-2)Man(a1-6)Man(b1-4)GlcNAc(b1-4)GlcNAc
# In short: as §1
# [19] = target: Gal(b1-4)GlcNAc(b1-2)Man(a1-6)[GlcNAc(b1-2)Man(a1-3)]Man(b1-4)GlcNAc(b1-4)GlcNAc
# In short: as §1
# [20] = target: Gal(b1-4)GlcNAc(b1-2)Man(a1-6)[Man(a1-3)]Man(b1-4)GlcNAc(b1-4)GlcNAc
# In short: as §1
# [21] = target: Gal(b1-4)GlcNAc(b1-2)[Gal(b1-4)GlcNAc(b1-4)]Man(a1-3)[Gal(b1-4)GlcNAc(b1-2)Man(a1-6)]Man(b1-4)GlcNAc(b1-4)GlcNAc
# In short: as §1
# [22] = target: Gal(b1-4)GlcNAc(b1-2)[Gal(b1-4)GlcNAc(b1-4)]Man(a1-3)[Gal(b1-4)GlcNAc(b1-2)[Gal(b1-4)GlcNAc(b1-6)]Man(a1-6)]Man(b1-4)GlcNAc(b1-4)GlcNAc
# In short: as §1
# [23] = target: Gal(b1-4)GlcNAc(b1-2)[Gal(b1-4)GlcNAc(b1-4)]Man(a1-3)[GlcNAc(b1-4)][Gal(b1-4)GlcNAc(b1-2)Man(a1-6)]Man(b1-4)GlcNAc(b1-4)GlcNAc
# In short: as §1
# [24] = target: Gal(b1-4)GlcNAc(b1-2)[Gal(b1-4)GlcNAc(b1-4)]Man(a1-3)[GlcNAc(b1-4)][Gal(b1-4)GlcNAc(b1-2)[Gal(b1-4)GlcNAc(b1-6)]Man(a1-6)]Man(b1-4)GlcNAc(b1-4)GlcNAc
# In short: as §1
# [25] = target: Gal(b1-4)GlcNAc(b1-2)[Gal(b1-4)GlcNAc(b1-6)]Man(a1-6)[Gal(b1-4)GlcNAc(b1-2)Man(a1-3)]Man(b1-4)GlcNAc(b1-4)GlcNAc
# In short: as §1
# [26] = target: Gal(b1-4)GlcNAc(b1-2)[Gal(b1-4)GlcNAc(b1-6)]Man(a1-6)[Gal(b1-4)GlcNAc(b1-2)Man(a1-3)]Man(b1-4)GlcNAc(b1-4)[Fuc(a1-6)]GlcNAc
# In short: as §1
# [27] = target: Gal(b1-4)GlcNAc(b1-2)[Gal(b1-4)GlcNAc(b1-6)]Man(a1-6)[GlcNAc(b1-4)][Gal(b1-4)GlcNAc(b1-2)Man(a1-3)]Man(b1-4)GlcNAc(b1-4)GlcNAc
# In short: as §1
# [28] = target: Gal(b1-4)GlcNAc(b1-2)[Gal(b1-4)GlcNAc(b1-6)]Man(a1-6)[GlcNAc(b1-4)][Gal(b1-4)GlcNAc(b1-2)[Gal(b1-4)GlcNAc(b1-4)]Man(a1-3)]Man(b1-4)GlcNAc(b1-4)[Fuc(a1-6)]GlcNAc
# In short: as §1
# [29] = target: Gal(b1-4)GlcNAc(b1-3)Gal(b1-3)GalNAc
# In short: as §1
# [30] = target: Gal(b1-4)GlcNAc(b1-3)Gal(b1-3)GlcNAc
# In short: as §1
# [31] = target: Gal(b1-4)GlcNAc(b1-3)Gal(b1-4)Glc
# In short: as §1
# [32] = target: Gal(b1-4)GlcNAc(b1-3)Gal(b1-4)GlcNAc
# In short: as §1
# [33] = target: Gal(b1-4)GlcNAc(b1-3)Gal(b1-4)GlcNAc(b1-2)Man(a1-3)[Gal(b1-4)GlcNAc(b1-3)Gal(b1-4)GlcNAc(b1-2)Man(a1-6)]Man(b1-4)GlcNAc(b1-4)GlcNAc
# In short: as §1
binder,measurement,setting,value
B1,glycan array binding signal (z-score),[1],-1.12
same,glycan array binding signal (z-score),[2],-0.428
same,glycan array binding signal (z-score),[3],1.15
same,glycan array binding signal (z-score),[4],2.79
same,glycan array binding signal (z-score),[5],-0.54
same,glycan array binding signal (z-score),[6],0.439
same,glycan array binding signal (z-score),Gal(b1-4)Gal,-1.58
same,glycan array binding signal (z-score),[7],-1.06
same,glycan array binding signal (z-score),[8],-0.733
same,glycan array binding signal (z-score),Gal(b1-4)Glc,-0.491
same,glycan array binding signal (z-score),Gal(b1-4)Glc6S,-0.263
same,glycan array binding signal (z-score),Gal(b1-4)GlcNAc,-0.158
same,glycan array binding signal (z-score),[9],0.129
same,glycan array binding signal (z-score),Gal(b1-4)GlcNAc(b1-2)Man,0.676
same,glycan array binding signal (z-score),[10],-0.274
same,glycan array binding signal (z-score),[11],0.069
same,glycan array binding signal (z-score),[12],-0.512
same,glycan array binding signal (z-score),[13],-0.486
same,glycan array binding signal (z-score),[14],-0.864
same,glycan array binding signal (z-score),[15],-0.054
same,glycan array binding signal (z-score),[16],0.103
same,glycan array binding signal (z-score),[17],-0.201
same,glycan array binding signal (z-score),[18],0.904
same,glycan array binding signal (z-score),[19],0.524
same,glycan array binding signal (z-score),[20],1.25
same,glycan array binding signal (z-score),[21],0.302
same,glycan array binding signal (z-score),[22],-0.954
same,glycan array binding signal (z-score),[23],0.132
same,glycan array binding signal (z-score),[24],0.051
same,glycan array binding signal (z-score),[25],-0.913
same,glycan array binding signal (z-score),[26],0.327
same,glycan array binding signal (z-score),[27],0.11
same,glycan array binding signal (z-score),[28],-0.684
same,glycan array binding signal (z-score),[29],-0.63
same,glycan array binding signal (z-score),[30],-0.369
same,glycan array binding signal (z-score),[31],-0.177
same,glycan array binding signal (z-score),[32],0.623
same,glycan array binding signal (z-score),[33],0.48

# An excerpt of these results, bar-delimited.
binder | measurement | setting | value
B1 | glycan array binding signal (z-score) | Gal(b1-4)Glc | -0.491
same | glycan array binding signal (z-score) | Gal(b1-4)Glc6S | -0.263
same | glycan array binding signal (z-score) | Gal(b1-4)GlcNAc | -0.158
same | glycan array binding signal (z-score) | [9] | 0.129
same | glycan array binding signal (z-score) | Gal(b1-4)GlcNAc(b1-2)Man | 0.676
same | glycan array binding signal (z-score) | [10] | -0.274
same | glycan array binding signal (z-score) | [11] | 0.069
